Measured values reported in US20200385438A1 (Stanford University, published 2020).
Substitutions are numbered along the chain they refer to. Results are given in words; binding and its absence hold for the method and conditions named. Some binding calls cover weakened binding; strength is not graded here.

Amino acid sequences for entries named in this document (tags omitted). A change or cut given only in a name is not applied to a line headed by its entry.
UniProt P60568: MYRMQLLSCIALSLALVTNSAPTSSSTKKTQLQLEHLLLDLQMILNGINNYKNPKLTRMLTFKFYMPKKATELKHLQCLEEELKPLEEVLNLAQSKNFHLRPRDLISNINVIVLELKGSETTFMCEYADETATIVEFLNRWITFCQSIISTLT

B1: B5 (receptor)
CD25 (IL-2Rα) chain: ELCDDDPPEIPHATFKAMAYKEGTILVCDCKRGFRRIKSGSAYMLCTGNSSHSSWDNQCQCTSSATRNTTKQVTPQPEEQKERKTTEMQSPMQPVDQASLPGHCREPPPWENEATERRYWFVVGQMVYYQCVQGYRALHRGPAESVCKMTHGQTRWTQPQLICTGEMETSQFPGEEKPQASPEGRPESETSCLVTTTDFQIQTEMAATMETSIFTTE
notes: also called B5 hCD25
B2: E8 (receptor)
CD25 (IL-2Rα) chain: B1 CD25 (IL-2Rα) chain with L2Q, I25V, V27Y, D29E, Q153K
notes: also called E8 hCD25
B3: F5 (receptor)
CD25 (IL-2Rα) chain: B1 CD25 (IL-2Rα) chain with I25L, D29E, R118N, W120M, Q153G
notes: also called F5 hCD25

molecular target: biotinylated recombinant BH3-tagged hIL-2 (human) (UniProt P60568); experiment: yeast display of hCD25 variants, clone screen with biotinylated hIL-2 monomer read by flow cytometry

| binding | Binder |
| --- | --- |
| binds | B1 |
| binds | B2 |
| binds | B3 |
